Measured data: PubChem BioAssay AID504804 (Drosophila RNAi Screening Center, 2011)

Aim: 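Fly genes whose loss lessens doxorubicin-driven cell death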 (primary screen)
Cell system: Drosophila Kc cells
Knock-down reagent: long dsRNA against Drosophila genes, 0.5 µg dsRNA per well
Duration: 96 h (48 h knock-down, then 48 h drug)
Conditions: doxorubicin 5 µg/ml for 48 h, added 48 h after dsRNA
Measured: 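Luminescent ATP counts per replicate, not normalised, reflecting viable cells after 48 h dsRNA knock-down followed by 48 h of 5 µg/ml doxorubicin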
Reading the numbers: raw ATP luminescence: higher = more viable cells, protection from doxorubicin
Call rule: 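z-score of 2 or more over plate mean in both duplicates, retained only when retests and separate dsRNAs confirm the protection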
The screen tested about 19,000 reagents; shown is an unselected part of those that have a named target and a result. In the full data, 47 (0.25%) were called active. 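Signals are raw, not normalised; exact z-scores behind calls not deposited; actives needed confirmation, so some wells reaching 2 SD are inactive.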 The numbers tell different reagents against one gene apart. Names joined by + are all predicted targets of the reagent. Reagent sequences are not shown.

target | dsRNA no. | raw ATP luminescence, replicate 1 | raw ATP luminescence, replicate 2 | Outcome
CG10910 | 1 | 2.14e5 | 2.11e5 | inactive
DCP2 | 1 | 21700 | 34040 | inactive
CG8673 | 1 | 40753 | 86060 | inactive
CG32344 | 1 | 61703 | 63853 | inactive
Unc-115b + p24-2 | 1 | 51490 | 21500 | inactive
GlyT | 1 | 54447 | 48893 | inactive
sle | 1 | 41650 | 18527 | inactive
Nup358 | 1 | 58767 | 98097 | inactive
RpS10b | 1 | 3.65e5 | 3.91e5 | inactive
Synd | 1 | 58870 | 65460 | inactive
Ilp5 | 1 | 1.41e5 | 1.55e5 | inactive
gish | 1 | 43810 | 54320 | inactive
Galphai | 1 | 46287 | 43443 | inactive
gammaCOP | 1 | 55230 | 54620 | inactive
P32 | 1 | 53427 | 62753 | inactive
Zasp66 | 1 | 1.65e5 | 1.84e5 | inactive
Zasp66 | 2 | 30050 | 33093 | inactive
Zasp66 | 3 | 88190 | 84873 | inactive
ath | 1 | 40227 | 68510 | inactive
Sk1 | 1 | 3.06e5 | 2.74e5 | inactive
Spase22-23 | 1 | 64280 | 84810 | inactive
CG6142 | 1 | 59750 | 57630 | inactive
CG15293 | 1 | 75850 | 77280 | inactive
Rh5 | 1 | 94967 | 67017 | inactive
CG3735 | 1 | 62170 | 54147 | inactive
cup | 1 | 1.28e5 | 78670 | inactive
PDCD-5 | 1 | 64123 | 53790 | inactive
Drep2 | 1 | 43680 | 44343 | inactive
CG15093 | 1 | 58837 | 68330 | inactive
CG30384 | 1 | 44127 | 82463 | inactive
Tmf | 1 | 43100 | 48100 | inactive
Rrp5 | 1 | 38527 | 40253 | inactive
Tcs5 | 1 | 93573 | 85977 | inactive
Atg17 | 1 | 64777 | 52717 | inactive
CG1979 | 1 | 39020 | 22017 | inactive
CG31897 | 1 | 3.30e5 | 3.13e5 | inactive
CG42445 | 1 | 30840 | 33350 | inactive
CG3650 | 1 | 39203 | 60993 | inactive

The list goes on (6 carried over from the part before).
target | dsRNA no. | raw ATP luminescence, replicate 1 | raw ATP luminescence, replicate 2 | Outcome
Tcs5 | 1 | 93573 | 85977 | inactive
Atg17 | 1 | 64777 | 52717 | inactive
CG1979 | 1 | 39020 | 22017 | inactive
CG31897 | 1 | 3.30e5 | 3.13e5 | inactive
CG42445 | 1 | 30840 | 33350 | inactive
CG3650 | 1 | 39203 | 60993 | inactive
CG12446 | 1 | 3.15e5 | 3.14e5 | inactive
HnRNP-K | 1 | 59647 | 69107 | inactive
mbm | 1 | 89840 | 84293 | inactive
GAPcenA | 1 | 81693 | 72687 | inactive
CG12259 | 1 | 51800 | 44120 | inactive
lncRNA:CR32658 | 1 | 3.39e5 | 3.15e5 | inactive
5PtaseI | 1 | 46060 | 45267 | inactive
Acer | 1 | 89993 | 78737 | inactive
CG13084 | 1 | 53820 | 62733 | inactive
Rap1 | 1 | 74103 | 67900 | inactive
CG10710 | 1 | 74030 | 62510 | inactive
alpha-Est3 | 1 | 31650 | 27407 | inactive
CG13511 | 1 | 52477 | 64853 | inactive
Sur-8 | 1 | 53380 | 79280 | inactive
CycY | 1 | 87360 | 75770 | inactive
GluRIIC | 1 | 1.08e5 | 85040 | inactive
mam | 1 | 22300 | 23367 | inactive
CG32236 | 1 | 97333 | 1.39e5 | inactive
CG12609 | 1 | 2.12e5 | 2.06e5 | inactive
SmydA-4 | 1 | 4.01e5 | 3.62e5 | inactive
CG18731 | 1 | 49380 | 35190 | inactive
CG7966 | 1 | 45663 | 26620 | inactive
COX5B | 1 | 19433 | 25260 | inactive
f | 1 | 1.83e5 | 1.82e5 | inactive
f | 2 | 2.19e5 | 2.36e5 | inactive
f | 3 | 2.37e5 | 2.44e5 | inactive
CG13064 | 1 | 48250 | 37033 | inactive
CG43328 | 1 | 2.00e5 | 1.39e5 | inactive
CG34038 | 1 | 78400 | 79900 | inactive
SelR | 1 | 52790 | 54407 | inactive
Ac3 | 1 | 67973 | 55497 | inactive
pit | 1 | 65610 | 80300 | inactive
hpRNA:CR18854 | 1 | 35480 | 60097 | inactive
CG15673 | 1 | 56307 | 60573 | inactive
CG13676 | 1 | 59667 | 66963 | inactive
Mst85C | 1 | 71377 | 61963 | inactive
Alp6 | 1 | 52443 | 60933 | inactive
AIMP2 | 1 | 46340 | 22347 | inactive
SMC2 | 1 | 69850 | 61637 | inactive
Dlc90F | 1 | 43077 | 48140 | inactive
CG9760 | 1 | 69420 | 72030 | inactive
CG31954 | 1 | 1.03e5 | 77403 | inactive
sac | 1 | 83603 | 65137 | inactive
CG14450 | 1 | 54277 | 57303 | inactive
CG4287 | 1 | 67363 | 63347 | inactive
CG7296 | 1 | 2.55e5 | 2.39e5 | inactive
